Assay results published in the supplement of paper PMC10735217.
Where a name gives a salt, the structure may show the parent alone. The list shows a part of the results. Repeats in this data set agree poorly, so a single value says little.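 The human kidney-derived cells carry a stably integrated construct of eight TEAD-binding elements driving luciferase, read by luminescence in a drug-repurposing library screen. A compound counts as a hit when its signal is more than five robust Z scores above the plate mean.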

Tested on: HEK293A TEAD-LUC reporter
Test: TEAD-luciferase reporter activity (YAP activation), robust Z score vs plate; higher = stronger YAP/TEAD activation
Conditions: 24 h

Row | SMILES | TEAD-luciferase reporter activity (compound concentration: 200 nM) | TEAD-luciferase reporter activity (compound concentration: 2 uM) | TEAD-luciferase reporter activity (compound concentration: 10 uM)
1 | Cc1c(Cc2ccccc2)nnc(N2CCN(c3cnc(C(C)(C)O)cn3)[C@H](C)C2)c1C | inactive: -0.699 | inactive: -1.17 | inactive: -0.515
2 | CC1=C(C#N)[C@@H](c2ccc(C#N)cc2S(C)(=O)=O)N(C)C(=O)N1c1cccc(C(F)(F)F)c1 | inactive: -0.329 | inactive: -0.807 | inactive: 2.44
3 | CC1(C)O[C@H]2[C@@H]3OS(=O)(=O)O[C@@H]3CO[C@@]2(COS(N)(=O)=O)O1 | inactive: -0.451 | inactive: -1.26 | inactive: -0.8
4 | Nc1nc(Cl)c2ncn(CCCCCB(O)O)c2n1 | inactive: -0.0233 | inactive: -1.09 | inactive: 0.265
5 | Cc1cc(C)c(/C=C2\C(=O)Nc3ccc(Cl)cc32)[nH]1 | inactive: -0.619 | inactive: 1.42 | inactive: -0.103
6 | CN1C[C@@H]2c3ccccc3Oc3ccc(Cl)cc3[C@H]2C1 [Asenapine maleate] | inactive: -0.265 | inactive: -1.19 | inactive: 1.07
7 | Cc1sc[n+](CC(=O)c2ccccc2)c1C [Alagebrium chloride] | inactive: -0.788 | inactive: -1.19 | inactive: 0.153
8 | CC[C@@]1(O)C(=O)OCc2c1cc1n(c2=O)Cc2cc3c(N)cccc3nc2-1 | inactive: 1.56 | inactive: -1.88 | inactive: -2.29
9 | O=C(O)CO [glycolic acid] | inactive: -0.198 | inactive: 0.0144 | inactive: 0.669
10 | C[C@@H](n1cnc2cc(Cl)ccc2c1=O)[C@](O)(Cn1cncn1)c1ccc(F)cc1F [albaconazole] | inactive: -1.11 | inactive: 1.95 | inactive: 0.605
11 | CCN(CC)CCOc1ccc(Cc2ccccc2)cc1 [Tesmilifene] | inactive: -1.18 | – | inactive: -0.961
12 | CCN(CC)CCOc1ccc(Cc2ccccc2)cc1 [tesmilifene hydrochloride] | – | inactive: -0.291 | –
13 | CN(C)C(=O)c1cc(CC(=O)O)ccc1NC(=O)c1ccccc1-c1ccc(C(F)(F)F)cc1 [granotapide metabolite] | inactive: -0.343 | inactive: -0.456 | inactive: 0.47
14 | CN(C)CCNc1nccc(NCc2ccc(CNc3nc(Cl)ncc3F)cc2)n1 | inactive: 4 | inactive: -0.174 | inactive: 3.51
15 | O=C1c2ccccc2CCC1CNCCc1ccc(O)cc1 (centres undefined) | inactive: -1.58 | inactive: -0.524 | inactive: -1.19
16 | COC(=O)[C@H]1[C@H]2C[C@@H]3c4[nH]c5cc(OC)ccc5c4CCN3C[C@H]2C[C@@H](OC(=O)/C=C/c2cc(OC)c(OC)c(OC)c2)[C@@H]1OC | inactive: 0.0935 | inactive: -0.0876 | inactive: 2.97
17 | CCCn1c(=O)c2nc(-c3cnn(Cc4cccc(C(F)(F)F)c4)c3)[nH]c2n(CCC)c1=O | inactive: -0.676 | inactive: -0.769 | inactive: 1.51
18 | COC(c1ccccc1)(c1ccccc1)[C@H](Oc1nc(C)cc(C)n1)C(=O)O [ambrisentan] | inactive: -1.84 | inactive: 0.116 | inactive: -0.131
19 | C[C@H]1[C@@H](O)O[C@@H]2OC3(C)CC[C@H]4[C@H](C)CC[C@@H]1[C@]24OO3 [Artenimol] | inactive: 1.54 | inactive: 0.849 | inactive: -1.71
20 | COc1ccc(-c2ccc(Cn3c(CC(C)(C)C(=O)[O-])c(SC(C)(C)C)c4cc(OCc5ccccn5)ccc43)cc2)cn1 | inactive: 0.556 | inactive: -0.415 | inactive: -0.407
21 | O[C@@H](COc1cccc2ncccc12)CN1CCN([C@@H]2c3ccccc3[C@@H]3[C@H](c4ccccc42)C3(F)F)CC1 [Zosuquidar trihydrochloride] | inactive: -1.33 | inactive: 0.097 | inactive: 1.8
22 | CC(O)CC(C)(C)O (centres undefined) | inactive: -0.0681 | inactive: -0.697 | inactive: -0.288
23 | O=C(CCCN1CCN2Cc3[nH]c4ccccc4c3CC2C1)c1ccc(F)cc1 (centres undefined) [Biriperone] | inactive: -1.44 | inactive: -0.697 | inactive: 3.01
24 | O=C(c1ccccc1)N1CCN=C1Nc1c(Cl)cccc1Cl [benclonidine] | inactive: 0.534 | inactive: -2.27 | inactive: 0.921

Single values from the entries so far:
Under TEAD-luciferase reporter activity (compound concentration: 200 nM), O=C(c1ccccc1)N1CCN=C1Nc1c(Cl)cccc1Cl [benclonidine] shows inactive: 0.534
Under TEAD-luciferase reporter activity (compound concentration: 10 uM), C[C@@H](n1cnc2cc(Cl)ccc2c1=O)[C@](O)(Cn1cncn1)c1ccc(F)cc1F [albaconazole] shows inactive: 0.605
